The target of this assay is OsCAF1A-GFP (rice (Oryza sativa)). Description: affinity purification with mass spectrometry; GFP-Trap_A beads on total protein of transgenic rice embryo calli expressing 2X35S: OsCAF1A-GFP (2X35S: GFP as control); lysis buffer 10 mM Tris-HCl pH 7.5, 150 mM NaCl, 0.5 mM EDTA, 0.5% NP-40, 1 mM PMSF; 4 °C for 2 h; three washes; LC-MS/MS.

Results are given in words; binding and its absence hold for the method and conditions named. In cells and extracts the contact can be indirect. Here binding means that the protein was enriched with, or labelled near, the bait; the list need not be complete.

B1: DEAD-box ATP-dependent RNA helicase 8-like (protein, UniProt Q6H7S2 1-508)
chain: MDPRARYPPGIGNGRGGNPNYYNRGPPLQQQHNHHQQQQTSAPHHQQYVQRQPQQHHHHNHHQQHQQQQQQWLRRNQIAREAAGTDRNSEPKAVAQSPAVDGIDSSSQDWKAQLKLPPQDTRYRTEDVTATKGNEFEDYFLKRELLMGIYEKGFERPSPIQEESIPIALTGSDILARAKNGTGKTAAFCIPALEKIDQEKNAIQVVILVPTRELALQTSQVCKELGKHLKIQVMVTTGGTSLKDDIIRLYQPVHLLVGTPGRILDLTKKGICILKDCSMLIMDEADKLLSPEFQPSVEQLIRYLPASRQILMFSATFPVTVKEFKDKYLPKPYVINLMDELTLKGITQFYAFVEERQKVHCLNTLFSKLQINQSIIFCNSVNRVELLAKKITELGYSCFYIHAKMLQDHRNRVFHDFRNGACRNLVCTDLFTRGIDIQAVNVVINFDFPKTAETYLHRVGRSGRFGHLGLAVNLITYEDRFNLYRIEQELGTEIKPIPPQIDQAIYCQ
Regarding B1, the binding entry was “binds”.

B2: 60S acidic ribosomal protein P0-like (protein, UniProt P41095 1-319)
chain: MAIKRTKAEKKVAYDKKLCQLLDEYTKVLIAVADNVGSNQLQEIRKGLRGDSIVLMGKNTLIRRCIKVHADNTGNKEFLELMPLLVGNVGLIFTKGDLKEVREEVAKYKVGAPARVGLVAPVDVVVPPGNTGLDPSQTSFFQVLNIPTKINKGTVEIITPVELIKKGDKVGSSESALLAKLGIRPFSYGLVITNVYDSGSVFSPEVLDLTEDDLMEKFASGVSMVASVSLAISYPTIAAAPHMFLNGYKNVLAVAVETEYSYPHADKIKEYLKDPSKFAVAAPVAADSGAAAPSAAKEEEKKEEPEEESDGDLGMSLFD
Turning to B2, the binding entry is “binds”.

These data come from paper PMC11990703.
